{"source": "PubChem BioAssay AID1259405 (NCATS, 2018)", "purpose": "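Mouse-designed siRNAs used to find CHO productivity engineering targets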 (primary screen)", "cells": "Chinese hamster CHO-K1 ovary cells with stable secreted eGFP expression", "reagent": "single siRNA against mouse genes, 0.8 pmol siRNA per well (2 µl of 400 nM stock)", "timing": "3 days", "detection": "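Percent of the per-plate non-targeting control median for intracellular GFP per well by laser scanning cytometry and for cell viability by ATP luminescence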", "direction": "GFP, % of control: higher = more GFP per well, higher productivity; viability (ATP), % of control: higher = more viable cells (more ATP)", "active means": "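Called active when intracellular GFP, relative to negative control, is at or above 120%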", "note": "The deposit covers about 50,000 reagents; this is a random part of them. About 4,000 of all reagents (8%) were called active. 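Mouse siRNA library applied to hamster cells; one well for each siRNA.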 Entries without a mark were called inactive. Reagents against one gene are numbered here."}
{"Gene": "Gpr12", "siRNA no.": 1, "GFP, % of control": 37.1, "viability (ATP), % of control": 57.5}
{"Gene": "Gpr12", "siRNA no.": 2, "GFP, % of control": 75.6, "viability (ATP), % of control": 80.9}
{"Gene": "Gpr12", "siRNA no.": 3, "GFP, % of control": 73.2, "viability (ATP), % of control": 83.2}
{"Gene": "Mtpap", "siRNA no.": 1, "GFP, % of control": "124 (active)", "viability (ATP), % of control": 94.8}
{"Gene": "Mtpap", "siRNA no.": 2, "GFP, % of control": 62.2, "viability (ATP), % of control": 70.2}
{"Gene": "Mtpap", "siRNA no.": 3, "GFP, % of control": "126 (active)", "viability (ATP), % of control": 107}
{"Gene": "Zscan5b", "siRNA no.": 1, "GFP, % of control": 60.7, "viability (ATP), % of control": 86}
{"Gene": "Zscan5b", "siRNA no.": 2, "GFP, % of control": 68.3, "viability (ATP), % of control": 72.7}
{"Gene": "Zscan5b", "siRNA no.": 3, "GFP, % of control": "147 (active)", "viability (ATP), % of control": 88.4}
{"Gene": "Or4c35", "siRNA no.": 1, "GFP, % of control": 69.2, "viability (ATP), % of control": 39.1}
{"Gene": "Or4c35", "siRNA no.": 2, "GFP, % of control": 96.9, "viability (ATP), % of control": 66.8}
{"Gene": "Or4c35", "siRNA no.": 3, "GFP, % of control": 53, "viability (ATP), % of control": 90.3}
{"Gene": "Arl3", "siRNA no.": 1, "GFP, % of control": "149 (active)", "viability (ATP), % of control": 81.2}
{"Gene": "Arl3", "siRNA no.": 2, "GFP, % of control": 52.2, "viability (ATP), % of control": 56.6}
{"Gene": "Arl3", "siRNA no.": 3, "GFP, % of control": 85.9, "viability (ATP), % of control": 83.3}
{"Gene": "S100a7a", "siRNA no.": 1, "GFP, % of control": 80.3, "viability (ATP), % of control": 71.3}
{"Gene": "S100a7a", "siRNA no.": 2, "GFP, % of control": 98.1, "viability (ATP), % of control": 76.9}
{"Gene": "S100a7a", "siRNA no.": 3, "GFP, % of control": 73, "viability (ATP), % of control": 58.5}
{"Gene": "Odf2l", "siRNA no.": 1, "GFP, % of control": 67.1, "viability (ATP), % of control": 84.9}
{"Gene": "Odf2l", "siRNA no.": 2, "GFP, % of control": 71.7, "viability (ATP), % of control": 74.5}
{"Gene": "Odf2l", "siRNA no.": 3, "GFP, % of control": "176 (active)", "viability (ATP), % of control": 30.4}
{"Gene": "Gmeb1", "siRNA no.": 1, "GFP, % of control": 75.2, "viability (ATP), % of control": 89.6}
{"Gene": "Gmeb1", "siRNA no.": 2, "GFP, % of control": 62.8, "viability (ATP), % of control": 47.8}
{"Gene": "Gmeb1", "siRNA no.": 3, "GFP, % of control": 69.1, "viability (ATP), % of control": 76.3}
{"Gene": "Clptm1", "siRNA no.": 1, "GFP, % of control": 65.6, "viability (ATP), % of control": 87}
{"Gene": "Clptm1", "siRNA no.": 2, "GFP, % of control": 63.3, "viability (ATP), % of control": 66}
{"Gene": "Clptm1", "siRNA no.": 3, "GFP, % of control": 100, "viability (ATP), % of control": 128}
{"Gene": "Mical1", "siRNA no.": 1, "GFP, % of control": 85.6, "viability (ATP), % of control": 92.6}
{"Gene": "Mical1", "siRNA no.": 2, "GFP, % of control": 114, "viability (ATP), % of control": 102}
{"Gene": "Mical1", "siRNA no.": 3, "GFP, % of control": 65.6, "viability (ATP), % of control": 54}
{"Gene": "Eda2r", "siRNA no.": 1, "GFP, % of control": 82.1, "viability (ATP), % of control": 114}
{"Gene": "Eda2r", "siRNA no.": 2, "GFP, % of control": 73.6, "viability (ATP), % of control": 66.9}
{"Gene": "Pdpr", "siRNA no.": 1, "GFP, % of control": 85.4, "viability (ATP), % of control": 70.7}
{"Gene": "Pdpr", "siRNA no.": 2, "GFP, % of control": 96.7, "viability (ATP), % of control": 50.2}
{"Gene": "Pdpr", "siRNA no.": 3, "GFP, % of control": "137 (active)", "viability (ATP), % of control": 83.4}
{"Gene": "Grik5", "siRNA no.": 1, "GFP, % of control": 79.2, "viability (ATP), % of control": 81}
{"Gene": "Grik5", "siRNA no.": 2, "GFP, % of control": 56.4, "viability (ATP), % of control": 38.6}
{"Gene": "Grik5", "siRNA no.": 3, "GFP, % of control": 59.8, "viability (ATP), % of control": 66.6}
{"Gene": "C1qtnf3", "siRNA no.": 1, "GFP, % of control": 43.1, "viability (ATP), % of control": 42.4}
{"Gene": "C1qtnf3", "siRNA no.": 2, "GFP, % of control": 95.8, "viability (ATP), % of control": 85.2}
{"Gene": "C1qtnf3", "siRNA no.": 3, "GFP, % of control": 106, "viability (ATP), % of control": 89.8}

2 neighbouring entries from above, for reference:
{"Gene": "Mtpap", "siRNA no.": 3, "GFP, % of control": "126 (active)", "viability (ATP), % of control": 107}
{"Gene": "Zscan5b", "siRNA no.": 1, "GFP, % of control": 60.7, "viability (ATP), % of control": 86}
